{
  "sequences": {"note": "Chains of the proteins cited; added tags and fusions are not shown. Residues count along the entry.", "UniProt Q7KZF4": "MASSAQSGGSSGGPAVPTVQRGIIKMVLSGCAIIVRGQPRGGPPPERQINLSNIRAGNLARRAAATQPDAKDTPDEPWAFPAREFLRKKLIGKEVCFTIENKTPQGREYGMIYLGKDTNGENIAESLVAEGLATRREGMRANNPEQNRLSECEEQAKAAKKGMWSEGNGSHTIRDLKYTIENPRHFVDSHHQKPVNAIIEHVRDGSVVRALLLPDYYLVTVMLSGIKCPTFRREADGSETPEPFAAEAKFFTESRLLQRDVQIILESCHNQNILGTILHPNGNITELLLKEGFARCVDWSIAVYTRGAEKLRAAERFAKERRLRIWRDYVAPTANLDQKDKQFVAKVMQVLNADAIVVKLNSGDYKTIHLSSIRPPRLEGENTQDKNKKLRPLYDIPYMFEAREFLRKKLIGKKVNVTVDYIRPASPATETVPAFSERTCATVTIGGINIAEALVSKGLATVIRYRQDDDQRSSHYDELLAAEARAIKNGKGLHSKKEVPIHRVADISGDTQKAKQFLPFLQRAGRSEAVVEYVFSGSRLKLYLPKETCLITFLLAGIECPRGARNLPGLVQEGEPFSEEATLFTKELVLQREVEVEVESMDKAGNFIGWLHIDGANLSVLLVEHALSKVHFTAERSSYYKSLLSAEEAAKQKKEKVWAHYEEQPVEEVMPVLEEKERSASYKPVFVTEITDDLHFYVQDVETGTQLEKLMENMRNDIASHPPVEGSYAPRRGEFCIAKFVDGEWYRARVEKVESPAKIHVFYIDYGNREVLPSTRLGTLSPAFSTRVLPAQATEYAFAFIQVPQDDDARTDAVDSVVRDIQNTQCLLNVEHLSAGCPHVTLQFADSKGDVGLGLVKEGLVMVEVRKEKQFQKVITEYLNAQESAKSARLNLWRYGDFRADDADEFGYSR", "UniProt O14786, residues 22-923": "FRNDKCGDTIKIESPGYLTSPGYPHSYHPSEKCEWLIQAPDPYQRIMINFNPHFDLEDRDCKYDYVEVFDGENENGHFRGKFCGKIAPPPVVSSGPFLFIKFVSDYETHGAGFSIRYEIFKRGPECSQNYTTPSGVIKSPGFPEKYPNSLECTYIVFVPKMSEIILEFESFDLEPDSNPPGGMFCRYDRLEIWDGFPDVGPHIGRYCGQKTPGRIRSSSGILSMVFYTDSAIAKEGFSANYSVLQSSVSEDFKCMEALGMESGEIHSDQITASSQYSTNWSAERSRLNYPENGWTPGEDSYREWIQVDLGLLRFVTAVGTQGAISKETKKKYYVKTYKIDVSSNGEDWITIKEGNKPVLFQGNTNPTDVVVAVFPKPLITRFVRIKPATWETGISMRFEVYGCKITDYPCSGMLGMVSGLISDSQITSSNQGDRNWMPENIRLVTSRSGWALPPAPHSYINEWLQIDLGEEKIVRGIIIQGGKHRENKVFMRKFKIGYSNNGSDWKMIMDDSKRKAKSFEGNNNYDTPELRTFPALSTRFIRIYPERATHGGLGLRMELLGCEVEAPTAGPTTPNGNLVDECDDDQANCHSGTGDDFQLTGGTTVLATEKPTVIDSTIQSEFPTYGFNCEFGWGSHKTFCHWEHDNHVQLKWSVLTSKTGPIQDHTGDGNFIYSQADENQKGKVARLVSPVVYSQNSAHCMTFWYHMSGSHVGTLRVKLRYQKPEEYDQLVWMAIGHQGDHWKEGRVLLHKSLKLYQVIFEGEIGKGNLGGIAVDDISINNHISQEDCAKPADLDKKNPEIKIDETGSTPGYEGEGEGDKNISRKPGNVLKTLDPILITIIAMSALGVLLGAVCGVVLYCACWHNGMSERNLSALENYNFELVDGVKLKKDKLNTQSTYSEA", "UniProt Q8NE71": "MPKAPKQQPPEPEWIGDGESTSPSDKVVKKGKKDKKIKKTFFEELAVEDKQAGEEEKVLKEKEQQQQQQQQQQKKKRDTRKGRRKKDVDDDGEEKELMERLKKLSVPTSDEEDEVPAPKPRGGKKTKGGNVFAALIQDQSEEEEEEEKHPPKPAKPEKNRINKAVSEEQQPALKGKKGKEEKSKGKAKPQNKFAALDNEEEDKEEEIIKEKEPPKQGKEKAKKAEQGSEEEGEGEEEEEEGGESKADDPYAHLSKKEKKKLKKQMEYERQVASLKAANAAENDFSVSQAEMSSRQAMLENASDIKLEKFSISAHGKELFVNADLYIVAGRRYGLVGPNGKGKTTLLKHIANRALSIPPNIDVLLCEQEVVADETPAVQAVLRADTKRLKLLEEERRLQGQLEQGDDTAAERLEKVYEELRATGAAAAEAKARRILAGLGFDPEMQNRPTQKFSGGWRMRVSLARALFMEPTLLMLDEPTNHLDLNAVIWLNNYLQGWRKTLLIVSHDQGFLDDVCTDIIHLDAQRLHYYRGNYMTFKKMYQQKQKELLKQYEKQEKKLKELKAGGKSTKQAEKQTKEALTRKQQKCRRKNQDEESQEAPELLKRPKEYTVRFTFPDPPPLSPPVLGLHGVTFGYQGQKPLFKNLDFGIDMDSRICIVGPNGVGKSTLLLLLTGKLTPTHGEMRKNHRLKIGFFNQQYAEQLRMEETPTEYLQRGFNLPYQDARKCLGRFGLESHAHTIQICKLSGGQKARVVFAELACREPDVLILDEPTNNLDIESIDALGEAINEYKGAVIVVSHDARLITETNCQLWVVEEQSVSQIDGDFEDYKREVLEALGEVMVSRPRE", "UniProt Q9H4L5": "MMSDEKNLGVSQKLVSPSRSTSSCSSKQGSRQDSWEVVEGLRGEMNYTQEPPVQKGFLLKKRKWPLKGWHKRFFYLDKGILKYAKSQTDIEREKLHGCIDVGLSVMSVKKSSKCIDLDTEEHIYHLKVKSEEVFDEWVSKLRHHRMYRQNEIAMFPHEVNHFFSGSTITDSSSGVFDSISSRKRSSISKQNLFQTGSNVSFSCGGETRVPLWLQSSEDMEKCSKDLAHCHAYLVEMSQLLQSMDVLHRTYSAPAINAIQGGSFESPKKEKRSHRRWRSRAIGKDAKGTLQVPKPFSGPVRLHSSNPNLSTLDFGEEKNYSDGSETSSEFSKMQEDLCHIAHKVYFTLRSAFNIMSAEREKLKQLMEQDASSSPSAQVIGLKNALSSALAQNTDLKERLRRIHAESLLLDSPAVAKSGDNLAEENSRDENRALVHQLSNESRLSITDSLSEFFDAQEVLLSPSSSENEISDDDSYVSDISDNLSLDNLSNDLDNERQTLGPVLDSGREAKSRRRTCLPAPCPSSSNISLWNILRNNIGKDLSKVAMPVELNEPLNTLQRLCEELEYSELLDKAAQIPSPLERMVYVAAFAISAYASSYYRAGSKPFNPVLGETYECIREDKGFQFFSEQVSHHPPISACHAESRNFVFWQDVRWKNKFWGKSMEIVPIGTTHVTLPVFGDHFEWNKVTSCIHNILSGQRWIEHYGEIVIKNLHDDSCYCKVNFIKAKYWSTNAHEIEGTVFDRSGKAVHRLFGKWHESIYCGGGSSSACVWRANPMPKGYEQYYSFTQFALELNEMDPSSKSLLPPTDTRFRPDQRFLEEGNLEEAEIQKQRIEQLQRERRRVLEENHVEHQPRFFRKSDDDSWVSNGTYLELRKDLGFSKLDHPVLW", "UniProt P17302": "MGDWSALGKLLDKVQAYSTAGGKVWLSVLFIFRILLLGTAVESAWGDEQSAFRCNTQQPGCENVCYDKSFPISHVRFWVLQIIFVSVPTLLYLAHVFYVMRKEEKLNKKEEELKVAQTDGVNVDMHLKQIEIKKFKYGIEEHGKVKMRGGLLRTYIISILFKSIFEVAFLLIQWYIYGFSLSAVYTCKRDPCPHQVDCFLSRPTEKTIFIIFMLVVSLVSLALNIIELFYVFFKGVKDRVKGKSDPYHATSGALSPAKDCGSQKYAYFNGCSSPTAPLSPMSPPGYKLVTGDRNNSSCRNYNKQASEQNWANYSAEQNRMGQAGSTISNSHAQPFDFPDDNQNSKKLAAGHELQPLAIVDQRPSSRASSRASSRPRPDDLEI", "UniProt Q9UI09": "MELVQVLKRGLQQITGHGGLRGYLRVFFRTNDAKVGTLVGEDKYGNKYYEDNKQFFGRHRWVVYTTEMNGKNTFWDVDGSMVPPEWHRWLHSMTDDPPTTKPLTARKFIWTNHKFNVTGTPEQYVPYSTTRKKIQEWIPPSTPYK"},
  "source": "paper PMC10617981",
  "note": "These are yes or no findings as the source states them, for the method shown. Binding seen in cells or lysates may run through a third protein. Here binding means that the protein was enriched with, or labelled near, the bait; the list need not be complete.",
  "data": [
    {"molecular_target": "staphylococcal nuclease domain-containing protein 1 (SND1), endogenous (human (endogenous in A549^ACE2)) (UniProt Q7KZF4)", "experiment": "affinity purification with mass spectrometry", "values": [
      {"substance": "SARS-CoV-2 NSP3 (from UniProt P0DTD1 819-2763)", "binding": "binds"},
      {"substance": "NRP1 (from UniProt O14786 22-923)", "binding": "binds"},
      {"substance": "SARS-CoV-2 NSP4 (from UniProt P0DTD1 2764-3263)", "binding": "binds"},
      {"substance": "ABCF1 (from UniProt Q8NE71 1-845)", "binding": "binds"},
      {"substance": "OSBPL3 (from UniProt Q9H4L5 1-887)", "binding": "binds"},
      {"substance": "GJA1 (from UniProt P17302 1-382)", "binding": "binds"},
      {"substance": "NDUFA12 (from UniProt Q9UI09 1-145)", "binding": "binds"},
      {"substance": "SARS-CoV-2 NSP9 made during infection (from UniProt P0DTD1 4141-4253)", "binding": "binds"}
    ]}
  ]
}
